Measured values published in patent US8183201B2 (priority 2006, dated 2012).

Tested on: Human prostate adenocarcinoma PC-3 cells
Parameters: species or system SCID mice
Conditions: mouse, in vivo, 1.5 mg/kg

## NCCCC(O)(P(=O)(O)O)P(=O)(O)O [Alendronate, alendronate, reference compound]
  tumor-induced increase in the serum calcium concentration (hypercalcemia): inhibited a tumor-induced increase in the serum calcium concentration
sc
  tumor growth in legs (in words): did not inhibit the tumor growth in legs
